Source: US20250000910A1, “Methods of Improving Therapeutic Efficacy of Mesenchymal Stromal Cells for Treatment of Osteoarthritis” (Georgia Tech Research Corporation, priority 2021, published 2025)
Entries after “also recorded” stand apart in the source; their conditions may differ. At least one structure is not confirmed: it was looked up by name or label, or the drawing left a doubt.

Tests used:
[1] = tested on: more therapeutic hMSCs (donors M1 and M2); test: Cytokine secretion of more therapeutic hMSCs after pharmacological intervention (Luminex 41 Plex, PLSDA); type: cell-based, human; conditions: for overall paracrine (cytokine) signaling response / secretion of therapeutic related cytokines (GM-CSF, GRO, IL-4, PDGF-AA): donors M1 and M2, +IL-1β 24 hr, vs CTRL
Procedure: Loaded samples (2.03 μL) were determined to be within the linear range of detection of the […] Millipore Corporation) system. Cytokines were quantified using a bead based multiplex immunoassay, Luminex Cytokine/Chemokine 41 Plex Immunomodulatory Kit ([…] Millipore Corporation). […] PLSDA was performed in MATLAB (Mathworks) using a function written by Cleiton Nunes (Mathworks File Exchange). This approach accounts for the multivariate nature of the data without overfitting. Prior to inputting the data into the algorithm, all data was z-scored [(observed-mean)/SD]. Intracellular signaling phospho-proteins and cytokine media read outs were used as the independent variables and the different hMSC donor's treatment conditions were used as the outcome variables. LVs in a multidimensional space (dimensionality varied by number of independent input variables) were defined and the two primary LVs were used for orthogonal rotation to best separate groups in the new plane defined by LV1 and LV2 (FIGS. 5a-5c). • Statistical Analysis

p-JNK = test: hMSC intracellular signaling analysis, MAPK/SAPK signaling 10-plex; conditions: more therapeutic hMSC donor M2, combination SP600125 and SC79, +IL-1β

Structure (SMILES) | overall paracrine (cytokine) signaling response [1] | shift of paracrine signaling profile (PLSDA) ([1]; donors M1 and M2, +IL-1β) | secretion of therapeutic related cytokines (GM-CSF, GRO, IL-4, PDGF-AA) [1] | secretion of therapeutic related cytokines (GM-CSF, GRO, IL-4, PDGF-AA) ([1]; listed as p-JNK inhibitor) | p-JNK phospho-protein levels relative to CTRL (p-JNK)
CO[C@H]1C[C@@H]2CC[C@@H](C)[C@@](O)(O2)C(=O)C(=O)N2CCCC[C@H]2C(=O)O[C@H]([C@H](C)C[C@@H]2CC[C@@H](O)[C@H](OC)C2)CC(=O)[C@H](C)/C=C(\C)[C@@H](O)[C@@H](OC)C(=O)[C@H](C)C[C@H](C)/C=C/C=C/C=C/1C [Rapamycin] | potentiation of the overall paracrine signaling response |  |  |  | 
Oc1c2ccccc2c2c3c(cccc13)N=N2 [SP600125] | broadly increased cytokine expression | shifted the paracrine secretion profile of the more therapeutic cells toward a less therapeutic profile | reduced cytokine secretion of the therapeutic related cytokines; also recorded: attenuated expression of cytokines/growth factors associated with more therapeutic hMSCs; also recorded: decreased secretion of GM-CSF, GRO, IL-4, and PDGF-AA | significantly less GM-CSF, GRO, and IL-4 secretion | significant (p<0.05) decrease in p-JNK phospho-protein levels; also recorded: decreased p-JNK signaling
